# According to PubChem BioAssay AID1347423 (Functional Genomics Laboratory (NCATS/FGL), 2020):
# Hit rate of the full screen: of about 52,000 sequences, about 210 (0.4%) were called active.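 Rule for the calls: active = gene whose silencing raises cell survival under the drug, median off-target-corrected z-score across its silencing RNAs 2 or more; inactive = the rest.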 This is one part of the list.
# Experiment: Resistance to Poly (ADP-Ribose) Polymerase inhibitor: Gene Identification via Genome-wide siRNA Screen
# Settings: mouse BRCA2 R2336H ES cells, olaparib, CellTiter-Glo viability; hits give high values
# Method in brief: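 Mouse BRCA2 R2336H ES cells were reverse-transfected with siRNA (20 nM final), treated at 48 h with 500 nM olaparib, and read by CellTiter-Glo after 72 h. Scores: MAD-based z per siRNA, median per gene, seed off-target correction.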
row,Sequence,z-score
1,GGUUGAAAAGAAGUACAGUTT against Ctcf,inactive: 1.29
2,GGGUAAGCCAAGAAGAAGUTT against Rgs4,inactive: -0.218
3,GCGGCCUUCGAAGAUAUUCTT against Pnliprp2,inactive: -1.71
4,GGCUGCAUUUAUUGAUAACTT against BC037135,inactive: 0.35
5,GCAUUAUCUGUGAAAAUCCTT against En2,inactive: 0.32
6,GGGUUCAAGGUAUUCUUAGTT against V1re5,inactive: -0.31
7,GGGUCAAUCAACUUCGAGGTT against Pkp2,inactive: 0.443
8,GGAAAUUAAGUGGAGAUCATT against Ebag9,inactive: 0.18
9,CCUAAGGCUCAAUGAGCCUTT against Etfb,inactive: -0.724
10,GGGAAAGGAUUCAAUUAAGTT against D330050I23Rik,inactive: 0.489
11,GGUAUCACCUUCGUUACUATT against Zc3hdc5,inactive: -0.613
12,CCAAAAGCUACGUGCCGUATT against Kif5a,inactive: -1.31
13,GGGUAAUUUUGAUAUUGUCTT against Dpm1,inactive: 0.995
14,GGAUCCUCUGGUAAAGGGATT against Gng11,inactive: 1.51
15,GGCUUCAUGCUGGUCCUUGTT against Pim2,inactive: 0.933
16,GGGAUCAUAGACGAUAUUUTT against Fnbp4,inactive: -1.41
17,GCCUUUCCUACUAUGAAUATT against Bmx,inactive: 1.03
18,GGUGAAGACCUUUGUCUCCTT against Matn3,inactive: 0.391
19,CCAAGGGUUGUUAAGUAUUTT against Cdh26,inactive: 0.567
20,CUUCCAGUGUAGACUUAUGTT against 9430025C20Rik,inactive: -0.908
21,GGUUGUGAGUGAGAACACUTT against Prss35,inactive: 0.576
22,CCAAGAUUCGGUUUUGCUUTT against Trerf1,inactive: 0.142
23,GGAGAGCUGCAUGAUUUCATT against 1700073K01Rik,inactive: -1.33

row,Sequence,z-score
1,GCCAGGAAUCACAAGAGCUTT against Gm169,inactive: 0.325
2,CCCAACUUCAUUUGUGUAUTT against Itga4,inactive: -1.15
3,GGCUGUAAUGAGGACUGAUTT against Deb1,inactive: -1.92
4,CCUCUUUGGGACUAUAGACTT against Olfr1357,inactive: -1.58
5,GGAAAGACCUCUUGAUAGGTT against 3110043L15Rik,inactive: 0.557
6,GGUAACAAACCGAAAGUAUTT against Polr3k,inactive: 0.914
7,CCAGAUUCAGUACCUCUAGTT against Kctd3,inactive: 0.214
8,GGUUUCAUUUUUCGAGGAGTT against Cit,inactive: 0.177
9,GCCGUACUUCGUCAAGCUATT against Ung,inactive: -0.787
10,CGCUUUAGUGACUUUCAAATT against BC019776,inactive: -0.462
11,GGAUCUGGCGGUUACUAAGTT against Gm867,inactive: -0.0373
12,GGACACCAUGCCACAGACATT against Hlx1,inactive: 0.856
13,GGUCCUAGGAGACUUUUUGTT against Dnahc11,inactive: -0.133
14,GGAAAUGCUCAAAGAUUUUTT against Cenpe,inactive: 0.378
15,GGCAGCAAAAAGGUUGAUUTT against Olfr1110,inactive: -0.379
16,GGUCUAUCAGUGCAUCGUGTT against BC052040,inactive: -0.5
17,GCUUCAAUGAGGAGUAUCUTT against Smpdl3b,inactive: -1.47
18,GGAAUUUUGGAAUCACUAGTT against Ssr1,inactive: 0.47
19,GGGACUUCAUUUUAUUCUGTT against Zcwcc2,inactive: 0.363
20,GGCUUGACUGAAUAAUAAUTT against F730108M23Rik,inactive: 0.0718
21,GCUGAAAGAAUUCGUGGACTT against Phf2,inactive: -0.0193
22,CCGUGGACAUGAAAACACCTT against Ly6g6e,inactive: 0.522
23,GCUUUUGAAGCGACUGGGATT against Frk,inactive: -0.306

# 2 entries picked at random from those above, as already listed:
row,Sequence,z-score
3,GGCUGUAAUGAGGACUGAUTT against Deb1,inactive: -1.92
7,CCAGAUUCAGUACCUCUAGTT against Kctd3,inactive: 0.214

# Reformatted: entries from further up
row	Sequence	z-score
11	GGAUCUGGCGGUUACUAAGTT against Gm867	inactive: -0.0373
12	GGACACCAUGCCACAGACATT against Hlx1	inactive: 0.856

# Carrying on:

row,Sequence,z-score
1,CGACCAUUGUGACUGGAGATT against Olfr782,inactive: 0.624
2,CCUGAGUGUGGAGUGUUUCTT against Olfr444,inactive: -0.711
3,GGAAUCUAGAAGAAUCAUUTT against Gnao1,inactive: 1.21
4,GGUUACAAAAGAACCAGAUTT against Pik3c2g,inactive: -0.479
5,GGAAAAGGUGGAAAAGUGATT against Ddx18,inactive: -1.37
6,GGUGACUCUACUGGAUUUUTT against Adck4,inactive: -0.199
7,GCCGGUUUAUAGAAGAAGATT against D6Wsu163e,inactive: -0.021
8,GGCCUCCAUAUCUAUCUAUTT against 1700123D08Rik,inactive: -0.0151
9,CCAUAUGAUAAGCAUAAGCTT against 9530049C15Rik,inactive: -0.0397
10,CCCUUCUCUGAUUGUCUGATT against 2310007F04Rik,inactive: -1.18
11,GCCACAAGGUUCGGUAUUCTT against 1700028K03Rik,inactive: -0.41
12,GGAUGGUGAAAAUCUUGAGTT against 4930504E06Rik,inactive: -0.215
13,CCUAAGUAUCUUCUGUUGGTT against 2310016C08Rik,inactive: -0.24
14,GGAGAAUGAGCAAAUCAAATT against 4832415H08Rik,inactive: -0.338
15,GCUCACUUCAGGUUUACCATT against Pdcd1,inactive: -0.426
16,GGCAUUUAUGUCAAAGGAUTT against Fhl5,inactive: 0.272
17,CCCGUCAAUACCACUUACCTT against BC023957,inactive: 1.89
18,GGGAAGUGGAUCGUGUUCUTT against Syt8,inactive: -0.343
19,GGGUCUUCUGGAGAUUCAGTT against Dgcr6,inactive: 0.364
20,GCAUGUGUACCAUUUACCUTT against Prdx1,inactive: 0.719
21,GGAGAAUCUGAUAUUGAUCTT against Cdkl2,inactive: 0.0565
